Reference: article PMC6513524, “Production and characterization of novel ssRNA bacteriophage virus-like particles from metagenomic sequencing data” (Journal of Nanobiotechnology, 2019)
No constants are given. Whether binding was seen depends on the method and setting. Some binding calls cover weakened binding; strength is not graded here.

Biological target: PRR1 coat protein (bacteriophage PRR1) (UniProt P03616)
Assay: SEC + other: negative-stain electron microscopy; crude E. coli lysate separated by gel filtration (Sepharose 4 FF, PBS); fractions in the size range of VLPs stained with 1% uranyl acetate and examined by TEM; self-assembly of the coat protein into virus-like particles

binding: binds
B1: PRR1 coat protein (protein, UniProt P03616 1-131)
chain: AQLQNLVLKDREATPNDHTFVPRDIRDNVGEVVESTGVPIGESRFTISLRKTSNGRYKSTLKLVVPVVQSQTVNGIVTPVVVRTSYVTVDFDYDARSTTKERNNFVGMIADALKADLMLVHDTIVNLQGVY
